This assay deals with HA-lamin A/C (wild type) (UniProt P02545). The experiment in a line: co-IP; Flag-Akt1 and HA-lamin A/C co-transfected in HEK293T; NP40 lysate, anti-HA or anti-Flag magnetic beads, 4 °C overnight, Western blotting. A general note: A western blot detects proteins with antibodies after separation by electrophoresis.

By UniProt entry, the sequences of proteins in these tests, tags left out. Residues count along the entry.
UniProt P02545, residues 1-646: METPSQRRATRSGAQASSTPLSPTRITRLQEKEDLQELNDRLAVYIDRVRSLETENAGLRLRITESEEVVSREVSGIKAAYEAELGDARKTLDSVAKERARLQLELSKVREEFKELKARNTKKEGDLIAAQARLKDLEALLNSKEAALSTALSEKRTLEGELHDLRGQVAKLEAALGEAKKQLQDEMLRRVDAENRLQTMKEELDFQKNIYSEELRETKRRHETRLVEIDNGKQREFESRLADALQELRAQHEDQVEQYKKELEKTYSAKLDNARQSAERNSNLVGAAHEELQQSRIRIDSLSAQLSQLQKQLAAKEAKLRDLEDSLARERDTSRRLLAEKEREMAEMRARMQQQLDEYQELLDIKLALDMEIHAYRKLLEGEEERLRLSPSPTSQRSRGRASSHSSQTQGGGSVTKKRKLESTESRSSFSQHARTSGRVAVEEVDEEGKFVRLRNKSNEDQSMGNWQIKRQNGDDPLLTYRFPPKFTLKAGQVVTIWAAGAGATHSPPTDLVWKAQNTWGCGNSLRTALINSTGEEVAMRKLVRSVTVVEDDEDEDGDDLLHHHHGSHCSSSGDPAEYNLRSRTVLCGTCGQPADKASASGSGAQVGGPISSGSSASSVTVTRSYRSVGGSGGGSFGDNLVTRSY
UniProt P31749: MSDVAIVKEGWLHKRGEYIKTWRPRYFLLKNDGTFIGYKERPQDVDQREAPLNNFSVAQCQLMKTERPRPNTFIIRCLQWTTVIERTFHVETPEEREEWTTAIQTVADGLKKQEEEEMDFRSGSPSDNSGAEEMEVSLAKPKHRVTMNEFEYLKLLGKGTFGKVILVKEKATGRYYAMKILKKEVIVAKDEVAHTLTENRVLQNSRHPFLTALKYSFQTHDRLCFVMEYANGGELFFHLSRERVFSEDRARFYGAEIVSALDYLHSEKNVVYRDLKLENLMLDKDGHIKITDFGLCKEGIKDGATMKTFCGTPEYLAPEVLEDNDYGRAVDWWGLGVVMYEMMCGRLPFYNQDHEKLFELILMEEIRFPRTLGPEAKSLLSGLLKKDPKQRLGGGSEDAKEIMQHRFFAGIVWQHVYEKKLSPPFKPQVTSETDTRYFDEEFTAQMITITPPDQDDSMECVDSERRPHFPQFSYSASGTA

Results are given in words; binding and its absence hold for the method and conditions named. Binding seen in cells or lysates may run through a third protein. Some binding calls cover weakened binding; strength is not graded here.

In the case of “Flag-Akt1 (from UniProt P31749 1-480) (enzyme)”, the binding result is recorded as “binds”.
